# Results as given in the supplement of paper PMC7666118.
# Chains of the proteins cited; added tags and fusions are not shown. Lines headed by an entry give the natural chain unless they say otherwise; changes in a name come on top.
# UniProt P49790, whole entry: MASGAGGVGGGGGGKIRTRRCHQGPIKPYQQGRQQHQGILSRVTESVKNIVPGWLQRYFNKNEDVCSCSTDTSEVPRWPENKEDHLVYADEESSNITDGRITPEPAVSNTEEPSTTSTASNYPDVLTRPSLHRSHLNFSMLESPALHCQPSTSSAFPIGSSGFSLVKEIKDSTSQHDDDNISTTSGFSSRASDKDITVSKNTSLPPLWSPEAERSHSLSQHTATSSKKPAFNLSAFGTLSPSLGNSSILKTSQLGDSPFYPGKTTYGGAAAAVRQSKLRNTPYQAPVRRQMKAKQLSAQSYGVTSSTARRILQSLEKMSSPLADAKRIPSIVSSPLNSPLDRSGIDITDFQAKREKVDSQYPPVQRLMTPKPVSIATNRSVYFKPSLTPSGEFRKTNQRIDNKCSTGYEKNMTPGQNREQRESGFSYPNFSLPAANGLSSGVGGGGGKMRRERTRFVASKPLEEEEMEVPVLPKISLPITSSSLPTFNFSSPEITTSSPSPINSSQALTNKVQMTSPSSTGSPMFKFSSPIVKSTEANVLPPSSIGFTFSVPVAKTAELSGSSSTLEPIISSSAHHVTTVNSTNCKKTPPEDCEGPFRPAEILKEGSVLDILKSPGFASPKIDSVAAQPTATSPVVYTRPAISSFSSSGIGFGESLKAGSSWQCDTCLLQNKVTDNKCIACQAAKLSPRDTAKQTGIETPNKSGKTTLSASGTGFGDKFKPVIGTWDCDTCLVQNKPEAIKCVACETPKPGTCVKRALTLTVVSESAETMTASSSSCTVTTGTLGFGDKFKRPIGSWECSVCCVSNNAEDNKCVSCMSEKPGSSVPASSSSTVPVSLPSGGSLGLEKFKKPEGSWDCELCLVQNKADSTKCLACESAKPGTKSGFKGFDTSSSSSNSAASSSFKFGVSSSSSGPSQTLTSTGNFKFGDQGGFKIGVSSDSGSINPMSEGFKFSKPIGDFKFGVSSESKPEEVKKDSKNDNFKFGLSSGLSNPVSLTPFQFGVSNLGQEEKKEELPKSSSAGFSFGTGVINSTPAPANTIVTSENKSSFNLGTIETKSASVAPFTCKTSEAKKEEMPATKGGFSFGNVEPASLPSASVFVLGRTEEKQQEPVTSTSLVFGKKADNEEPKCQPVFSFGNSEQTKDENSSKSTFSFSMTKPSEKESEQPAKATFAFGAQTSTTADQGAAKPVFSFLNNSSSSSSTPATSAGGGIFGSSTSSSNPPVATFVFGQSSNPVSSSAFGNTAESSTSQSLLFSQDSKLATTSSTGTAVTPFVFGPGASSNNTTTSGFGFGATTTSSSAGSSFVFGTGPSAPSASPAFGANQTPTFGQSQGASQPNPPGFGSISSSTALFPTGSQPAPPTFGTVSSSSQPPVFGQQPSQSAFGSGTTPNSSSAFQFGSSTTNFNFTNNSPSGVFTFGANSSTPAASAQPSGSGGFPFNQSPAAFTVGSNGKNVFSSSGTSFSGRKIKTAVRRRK
# UniProt Q29RF7: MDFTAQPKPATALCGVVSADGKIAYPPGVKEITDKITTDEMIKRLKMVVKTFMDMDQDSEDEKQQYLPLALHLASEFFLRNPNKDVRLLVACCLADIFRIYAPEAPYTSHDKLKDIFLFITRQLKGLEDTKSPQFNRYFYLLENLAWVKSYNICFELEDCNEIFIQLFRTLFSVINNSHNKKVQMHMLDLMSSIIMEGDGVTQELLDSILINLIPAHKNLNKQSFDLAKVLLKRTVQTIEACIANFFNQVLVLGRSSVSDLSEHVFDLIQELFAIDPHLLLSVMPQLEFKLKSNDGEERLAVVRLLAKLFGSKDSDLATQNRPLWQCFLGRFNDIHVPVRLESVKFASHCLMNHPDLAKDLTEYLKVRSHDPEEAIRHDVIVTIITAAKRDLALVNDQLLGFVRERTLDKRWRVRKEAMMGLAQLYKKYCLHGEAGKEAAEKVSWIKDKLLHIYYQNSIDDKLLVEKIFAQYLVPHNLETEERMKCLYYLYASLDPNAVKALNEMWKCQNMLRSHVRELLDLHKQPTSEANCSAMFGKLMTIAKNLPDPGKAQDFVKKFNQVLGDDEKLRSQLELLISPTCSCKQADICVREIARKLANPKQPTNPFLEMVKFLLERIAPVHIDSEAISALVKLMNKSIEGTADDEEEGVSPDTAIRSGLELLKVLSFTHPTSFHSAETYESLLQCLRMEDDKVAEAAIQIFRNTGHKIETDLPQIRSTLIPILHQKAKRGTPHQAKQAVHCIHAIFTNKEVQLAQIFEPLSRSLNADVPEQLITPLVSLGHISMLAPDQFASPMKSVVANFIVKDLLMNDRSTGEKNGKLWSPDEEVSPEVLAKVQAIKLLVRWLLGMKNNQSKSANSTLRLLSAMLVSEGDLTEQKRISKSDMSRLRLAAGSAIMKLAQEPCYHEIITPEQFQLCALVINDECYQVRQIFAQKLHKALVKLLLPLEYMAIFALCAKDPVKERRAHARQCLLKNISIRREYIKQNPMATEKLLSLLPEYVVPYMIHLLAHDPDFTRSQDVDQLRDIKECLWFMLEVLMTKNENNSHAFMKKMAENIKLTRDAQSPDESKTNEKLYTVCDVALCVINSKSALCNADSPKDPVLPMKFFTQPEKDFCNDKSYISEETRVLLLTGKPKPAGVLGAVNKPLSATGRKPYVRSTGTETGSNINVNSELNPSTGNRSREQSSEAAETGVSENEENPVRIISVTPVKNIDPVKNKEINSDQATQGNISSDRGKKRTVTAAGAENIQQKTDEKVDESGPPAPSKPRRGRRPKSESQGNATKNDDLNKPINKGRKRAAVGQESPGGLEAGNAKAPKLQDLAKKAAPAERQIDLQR
# UniProt P53384: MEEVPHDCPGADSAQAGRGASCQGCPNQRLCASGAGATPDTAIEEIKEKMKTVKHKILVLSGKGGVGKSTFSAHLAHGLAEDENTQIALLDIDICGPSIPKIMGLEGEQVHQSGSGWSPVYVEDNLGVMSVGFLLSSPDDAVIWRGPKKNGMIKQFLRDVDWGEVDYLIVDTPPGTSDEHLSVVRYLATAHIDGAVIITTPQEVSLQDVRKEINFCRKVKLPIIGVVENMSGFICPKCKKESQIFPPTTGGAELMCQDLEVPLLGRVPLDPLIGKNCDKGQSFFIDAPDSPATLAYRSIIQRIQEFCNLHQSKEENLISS
# UniProt P50583: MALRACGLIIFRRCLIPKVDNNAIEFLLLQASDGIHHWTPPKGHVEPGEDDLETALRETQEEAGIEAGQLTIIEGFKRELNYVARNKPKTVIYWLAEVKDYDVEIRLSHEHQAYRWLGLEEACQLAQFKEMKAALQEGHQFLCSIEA
# UniProt Q96HS1, whole entry: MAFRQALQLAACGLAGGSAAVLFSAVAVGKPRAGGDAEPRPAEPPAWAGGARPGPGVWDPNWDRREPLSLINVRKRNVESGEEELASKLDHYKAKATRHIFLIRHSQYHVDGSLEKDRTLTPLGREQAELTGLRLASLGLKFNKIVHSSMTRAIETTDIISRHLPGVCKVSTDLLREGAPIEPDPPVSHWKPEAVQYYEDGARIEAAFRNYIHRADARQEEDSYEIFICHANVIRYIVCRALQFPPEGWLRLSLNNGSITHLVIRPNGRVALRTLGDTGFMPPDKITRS
# UniProt Q02218: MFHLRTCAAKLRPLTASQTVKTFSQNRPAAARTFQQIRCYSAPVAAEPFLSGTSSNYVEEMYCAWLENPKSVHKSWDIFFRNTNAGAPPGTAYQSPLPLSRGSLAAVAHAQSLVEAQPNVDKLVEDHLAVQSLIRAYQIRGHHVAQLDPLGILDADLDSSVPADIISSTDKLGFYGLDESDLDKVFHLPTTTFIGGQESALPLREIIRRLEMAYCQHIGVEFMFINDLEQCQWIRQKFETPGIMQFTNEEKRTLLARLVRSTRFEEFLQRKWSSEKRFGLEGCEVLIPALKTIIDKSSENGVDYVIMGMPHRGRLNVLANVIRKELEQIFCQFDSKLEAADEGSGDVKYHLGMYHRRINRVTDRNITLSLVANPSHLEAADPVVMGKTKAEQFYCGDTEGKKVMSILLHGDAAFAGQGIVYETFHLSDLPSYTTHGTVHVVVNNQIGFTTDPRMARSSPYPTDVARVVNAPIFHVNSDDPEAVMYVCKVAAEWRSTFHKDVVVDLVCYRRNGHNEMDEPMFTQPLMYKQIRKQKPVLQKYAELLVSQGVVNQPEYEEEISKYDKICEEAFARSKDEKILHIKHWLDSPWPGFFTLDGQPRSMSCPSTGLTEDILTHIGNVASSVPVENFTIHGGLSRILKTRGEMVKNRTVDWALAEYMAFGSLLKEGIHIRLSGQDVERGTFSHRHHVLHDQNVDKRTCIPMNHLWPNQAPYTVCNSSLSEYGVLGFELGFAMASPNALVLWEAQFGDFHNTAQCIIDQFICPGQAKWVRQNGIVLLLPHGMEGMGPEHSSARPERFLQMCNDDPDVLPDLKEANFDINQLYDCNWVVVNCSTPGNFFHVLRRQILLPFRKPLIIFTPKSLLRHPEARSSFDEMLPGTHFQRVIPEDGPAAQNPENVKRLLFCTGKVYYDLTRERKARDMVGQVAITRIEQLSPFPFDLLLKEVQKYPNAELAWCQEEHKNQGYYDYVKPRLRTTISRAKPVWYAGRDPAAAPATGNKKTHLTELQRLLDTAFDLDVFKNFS
# UniProt Q9UKX7: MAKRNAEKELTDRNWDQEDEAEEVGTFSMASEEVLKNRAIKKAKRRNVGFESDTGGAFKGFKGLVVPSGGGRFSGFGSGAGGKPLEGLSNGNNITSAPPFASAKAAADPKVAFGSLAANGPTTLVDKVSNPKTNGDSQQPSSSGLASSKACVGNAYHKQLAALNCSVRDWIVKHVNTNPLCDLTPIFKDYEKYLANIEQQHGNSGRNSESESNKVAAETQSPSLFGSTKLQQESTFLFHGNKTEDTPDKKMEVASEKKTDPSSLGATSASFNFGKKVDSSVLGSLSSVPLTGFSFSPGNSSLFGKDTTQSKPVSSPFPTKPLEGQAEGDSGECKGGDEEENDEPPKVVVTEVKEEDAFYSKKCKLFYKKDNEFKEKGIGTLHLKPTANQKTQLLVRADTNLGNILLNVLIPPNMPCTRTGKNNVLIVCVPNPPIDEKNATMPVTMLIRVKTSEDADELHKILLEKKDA
# UniProt P11940, whole entry: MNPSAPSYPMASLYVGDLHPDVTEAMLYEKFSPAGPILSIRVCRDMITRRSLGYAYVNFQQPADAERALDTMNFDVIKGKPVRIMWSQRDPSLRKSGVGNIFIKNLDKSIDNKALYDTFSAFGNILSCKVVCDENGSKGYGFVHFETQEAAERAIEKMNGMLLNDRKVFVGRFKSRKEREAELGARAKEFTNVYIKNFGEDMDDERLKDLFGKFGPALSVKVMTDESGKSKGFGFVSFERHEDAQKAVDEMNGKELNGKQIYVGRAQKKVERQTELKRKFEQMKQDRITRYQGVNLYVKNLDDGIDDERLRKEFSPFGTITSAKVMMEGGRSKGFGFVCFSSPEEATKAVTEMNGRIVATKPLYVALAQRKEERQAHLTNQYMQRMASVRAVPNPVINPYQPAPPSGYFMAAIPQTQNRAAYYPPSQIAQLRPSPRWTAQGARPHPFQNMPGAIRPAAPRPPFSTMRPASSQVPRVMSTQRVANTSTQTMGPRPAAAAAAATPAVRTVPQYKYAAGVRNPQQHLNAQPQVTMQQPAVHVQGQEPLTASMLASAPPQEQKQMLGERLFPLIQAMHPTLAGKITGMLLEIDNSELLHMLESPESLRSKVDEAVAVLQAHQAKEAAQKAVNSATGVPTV
# UniProt Q8NCN5: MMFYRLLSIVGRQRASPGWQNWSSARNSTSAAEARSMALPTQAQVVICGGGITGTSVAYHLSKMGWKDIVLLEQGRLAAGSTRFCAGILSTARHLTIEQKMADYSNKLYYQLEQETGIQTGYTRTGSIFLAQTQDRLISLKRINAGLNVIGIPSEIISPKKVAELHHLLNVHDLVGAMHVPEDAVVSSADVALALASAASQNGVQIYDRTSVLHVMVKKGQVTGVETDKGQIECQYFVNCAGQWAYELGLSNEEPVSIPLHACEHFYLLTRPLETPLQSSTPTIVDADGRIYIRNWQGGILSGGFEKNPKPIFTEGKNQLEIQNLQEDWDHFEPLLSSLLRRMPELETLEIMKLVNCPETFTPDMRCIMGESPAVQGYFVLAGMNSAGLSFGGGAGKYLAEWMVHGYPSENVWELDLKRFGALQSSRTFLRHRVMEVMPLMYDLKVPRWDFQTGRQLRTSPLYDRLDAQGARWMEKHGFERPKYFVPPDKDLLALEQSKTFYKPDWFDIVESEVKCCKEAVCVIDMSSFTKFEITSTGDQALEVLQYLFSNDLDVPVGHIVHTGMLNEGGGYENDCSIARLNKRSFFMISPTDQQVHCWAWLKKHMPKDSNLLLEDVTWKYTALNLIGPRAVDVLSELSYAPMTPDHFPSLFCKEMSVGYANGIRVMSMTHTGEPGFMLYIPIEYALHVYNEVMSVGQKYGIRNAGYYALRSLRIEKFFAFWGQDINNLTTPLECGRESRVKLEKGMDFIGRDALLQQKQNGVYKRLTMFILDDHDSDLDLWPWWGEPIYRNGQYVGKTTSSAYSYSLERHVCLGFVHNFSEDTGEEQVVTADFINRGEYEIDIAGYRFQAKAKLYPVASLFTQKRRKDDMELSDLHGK
# This is one part of the list.
# Compound: COc1ccc(Cn2ccc3ccc(C(=O)NO)cc32)cc1
# Assay: dose-dependent thermal stabilisation call (2D-TPP, DLPTP, 10% FDR) (binary (1 = stabilised)); higher = stabilised by the compound
# Details: system: HL-60 intact cells; concentration range 0.04-10 µM
row,Target,dose-dependent thermal stabilisation call
1,NSBP1 (UniProt P82970),inactive: 0
2,PELO (UniProt Q9BRX2),inactive: 0
3,PDIA3 (UniProt P30101),inactive: 0
4,OSBPL8 (UniProt Q9BZF1),inactive: 0
5,PCM1 (UniProt Q15154),inactive: 0
6,NUP153 (UniProt P49790),inactive: 0
7,PBX2 (UniProt P40425),inactive: 0
8,NUB1 (UniProt Q9Y5A7),inactive: 0
9,PACSIN2 (UniProt Q9UNF0),inactive: 0
10,PDS5A (UniProt Q29RF7),inactive: 0
11,NUPL2 (UniProt O15504),inactive: 0
12,NUBP1 (UniProt P53384),inactive: 0
13,NUDT2 (UniProt P50583),inactive: 0
14,OXSR1 (UniProt O95747),inactive: 0
15,PCBP2 (UniProt Q15366),inactive: 0
16,PDSS2 (UniProt Q86YH6),inactive: 0
17,PCYT1A (UniProt P49585),inactive: 0
18,PDXP (UniProt Q96GD0),inactive: 0
19,OXR1 (UniProt Q8N573),inactive: 0

# Reformatted: results already given
row	Target	dose-dependent thermal stabilisation call
8	NUB1 (UniProt Q9Y5A7)	inactive: 0
9	PACSIN2 (UniProt Q9UNF0)	inactive: 0
10	PDS5A (UniProt Q29RF7)	inactive: 0
11	NUPL2 (UniProt O15504)	inactive: 0
12	NUBP1 (UniProt P53384)	inactive: 0
13	NUDT2 (UniProt P50583)	inactive: 0
14	OXSR1 (UniProt O95747)	inactive: 0
15	PCBP2 (UniProt Q15366)	inactive: 0
16	PDSS2 (UniProt Q86YH6)	inactive: 0

# Going on with the list.

row,Target,dose-dependent thermal stabilisation call
1,PGAM5 (UniProt Q96HS1),inactive: 0
2,NUDT1 (UniProt P36639),inactive: 0
3,OGDH (UniProt Q02218),inactive: 0
4,NT5C (UniProt Q8TCD5),inactive: 0
5,PEX14 (UniProt O75381),inactive: 0
6,NUP50 (UniProt Q9UKX7),inactive: 0
7,PFN2 (UniProt P35080),inactive: 0
8,PABPC1 (UniProt P11940),inactive: 0
9,OXNAD1 (UniProt Q96HP4),inactive: 0
10,PBK (UniProt Q96KB5),inactive: 0
11,PDCL (UniProt Q13371),inactive: 0
12,OPA3 (UniProt Q9H6K4),inactive: 0
13,NUDT3 (UniProt O95989),inactive: 0
14,PDPR (UniProt Q8NCN5),inactive: 0
15,NUDCD1 (UniProt Q96RS6),inactive: 0
16,PDPK1 (UniProt O15530),inactive: 0
17,NUDT4 (UniProt Q9NZJ9),inactive: 0
18,NUDT6 (UniProt P53370),inactive: 0
